Test results published in PMC10904395, “The Deinococcus protease PprI senses DNA damage by directly interacting with single-stranded DNA”.
Where a chain is given by its changes, count along the chain named. A weaker result is weaker than the reference pair of the same experiment. Protein sequences can lack the tags named with them.

Assays:
Experiment in all cases: EMSA
[1] = target: T1, DG-PprI R207A/R267A (Deinococcus geothermalis) (UniProt Q1J1D6); details: smeared shifted bands; EMSA: 150 mM NaCl, 20 mM Tris-HCl pH 8.0, 0.1 mg/ml BSA, 0.1 uM FAM-labeled nucleic acid, 0/1/2 uM protein, room temperature 30 min, 10% native PAGE in 1x TB; recombinant protein; residues 1-289; label: 5' FAM; single-stranded DNA
T1 sequence (looked up): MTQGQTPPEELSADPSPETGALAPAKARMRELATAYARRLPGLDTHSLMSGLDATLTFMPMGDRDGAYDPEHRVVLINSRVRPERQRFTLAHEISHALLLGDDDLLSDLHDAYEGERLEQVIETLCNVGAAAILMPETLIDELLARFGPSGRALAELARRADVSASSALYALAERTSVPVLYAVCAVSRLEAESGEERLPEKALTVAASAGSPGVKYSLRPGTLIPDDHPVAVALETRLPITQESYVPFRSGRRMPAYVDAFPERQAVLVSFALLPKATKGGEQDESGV

[2] = target: T2, DG-PprI R85A/R207A (Deinococcus geothermalis) (UniProt Q1J1D6); details: smeared shifted bands; EMSA: 150 mM NaCl, 20 mM Tris-HCl pH 8.0, 0.1 mg/ml BSA, 0.1 uM FAM-labeled nucleic acid, 0/1/2 uM protein, room temperature 30 min, 10% native PAGE in 1x TB; recombinant protein; residues 1-289; label: 5' FAM; single-stranded DNA
T2 sequence (looked up): T1 sequence (looked up) with R85A, A267R

[3] = target: T3, DG-PprI patch 2 mutant L22A,K26A,R117A (Deinococcus geothermalis) (UniProt Q1J1D6); details: smeared shifted bands; EMSA: 150 mM NaCl, 20 mM Tris-HCl pH 8.0, 0.1 mg/ml BSA, 0.1 uM FAM-labeled nucleic acid, 0/1/2 uM protein, room temperature 30 min, 10% native PAGE in 1x TB; recombinant protein; residues 1-289; label: 5' FAM; single-stranded DNA
T3 sequence (looked up): T1 sequence (looked up) with L22A, K26A, R117A, A207R, A267R

[4] = target: T4, DG-PprI patch 3 mutant R220A,R250A,S251A (Deinococcus geothermalis) (UniProt Q1J1D6); details: described as defective; EMSA: 150 mM NaCl, 20 mM Tris-HCl pH 8.0, 0.1 mg/ml BSA, 0.1 uM FAM-labeled nucleic acid, 0/1/2 uM protein, room temperature 30 min, 10% native PAGE in 1x TB; recombinant protein; residues 1-289; label: 5' FAM; single-stranded DNA
T4 sequence (looked up): T1 sequence (looked up) with A207R, R220A, R250A, S251A, A267R

Measured: binding result

CGCTCTTCGCCATTCTCTTGAAGTTTCAAACTTGG [35nt ssDNA]
binds more weakly: all assays above
